Values of other authors, collected in US20260000697A1, “COMBINATION FORMULATION OF CEDAZURIDINE” (Otsuka Pharmaceutical Co., Ltd., priority 2022, published 2026).
Values joined by “and” are separate entries in the source; they are usually repeats but may differ in a detail not shown here. Equal values may be shown once. The name of at least one read-out is uncertain.

Details: 80 mg oral dose, 3 patients, one value per patient; cited from earlier work

SMILES: Nc1ncn([C@@H]2O[C@H](CO)C(O)[C@@H]2O)c(=O)n1 (stereo partly shown) [azacitidine]
- Bioavailability relative to SC dosing: 6.3% and 24% and 22%
